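Growth of Mycobacterium tuberculosis over 4 days (cholesterol / DPPC medium with tyloxapol); the read-out is not stated. Compounds at 500 µM. The record gives no direction; compounds that gave an IC50 in retests scored well above the rest, so higher reads as more growth inhibition. About 18,000 compounds were tested under these conditions; 5% (about 900) showed 50% or more at least once.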

Results are given as percent effect. The record does not define 0% and 100%; most values in the screen are far below 50% and negative numbers occur (in some assays of this library far below -100). Compounds were drawn at random from those tested, without regard to their results.

- COCC(C)NC(=O)c1ccc2c(c1)CCC(=O)N2 (centres undefined) | 8.907%
- Cn1cc(NC(=O)CCOc2ccc(F)cc2)cn1 | 16.81%
- O=C1CNc2cccc(F)c2N1 | -107.2%
- CCOc1cc(CNC)cc(Cl)c1OCC(N)=O | 9.818%
- CCC1CN(C(=O)[C@H](O)c2ccccc2Cl)CCO1 (some centres undefined) | 1.2%
- CCCC1=NNC(=O)C1 | 20.88%
- CSCC(=O)NC1CCCC1 | 9.989%
- Cc1cc(NC(=O)CCN2CCC(O)CC2)no1 | 19.38%
- CN(CCCS(C)(=O)=O)C(=O)c1cccc(F)c1Cl | 12.65%
- O=C(NC1CC1)C1CCCN1c1ccc2nnnn2n1 (centres undefined) | 6.975%
- COCCC1(CO)CCCN(Cc2cnc(C)cn2)C1 (centres undefined) | 5.351%
- Cc1cccc(CNC(=O)c2ccc(C#N)nc2)n1 | -1.263%
- COCCNCCNC(=O)c1noc2c1CCCC2 | -0.662%
- COc1cc(I)c(C(=O)N2CCC2)cc1OC | 6.054%
- NC(=O)c1ccc(S(=O)(=O)N2CCNCC2)o1 | 5.234%
- O=C(NCCn1ccnc1)NCC1CCOC1 (centres undefined) | 7.859%
- Cc1noc(C)c1S(=O)(=O)N[C@@H]1CCOC[C@H]1O | 1.862%
- CCOC(=O)Cc1nc2nc(C)cc(C)n2n1 | -2.891%
- COc1ccc(CN2CCCC3(CCOCC3)C2)cn1 | 21.23%
- O=C(Nc1ccncn1)NC1CCSCC1 | -7.827%
- O=C(c1ccc2ccccc2c1O)N1CCOCC1 | 19.9%
- Cc1cc(NC(=O)CCN2CCCCC2C(N)=O)no1 (centres undefined) | 18.17%
- CCCn1ccnc1CNC(=O)CCC(=O)N(C)C | 7.324%
- Cc1cc(C)cc(OCCNC(=O)CSCC(N)=O)c1 | 34.94%
- CC(C)CC(=O)Nc1cccc(C(=O)N(C)C)c1 | -22.13%
- CC(C)S(=O)(=O)N(C)C(=O)c1cc(Br)c2c(c1)OCO2 | -3.136%
- CN(C)c1ncc2c(n1)CCCC2N (centres undefined) | -272.1%
- CN1CCC(CNC(=O)CCc2cccs2)C1 (centres undefined) | 4.579%
- CN(C)S(=O)(=O)CCCN1CC(C)(C)[C@@](C)(O)C1 | -2.924%

For reference, 3 entries once more:

With COCCC1(CO)CCCN(Cc2cnc(C)cn2)C1 (centres undefined) the screen gave 5.351%.
With CC(C)CC(=O)Nc1cccc(C(=O)N(C)C)c1 the screen gave -22.13%.
With CCCn1ccnc1CNC(=O)CCC(=O)N(C)C the screen gave 7.324%.

Source: ChEMBL document CHEMBL3988442, “University of Dundee, Small-Polar-MMV Screening Library” (2021).